What follows is the remainder of the data, with few or none of the targets with a hit. The data scatter; read single values as rough. The list shows a part of the results, in another mix than the full data.
Compound: COC(=O)/C=C/c1ccccc1 [methyl cinnamate]
Experiment: log2 ratio of iodoacetamide-alkyne labeling of the cysteine site, DMSO over compound (competition); higher = stronger covalent engagement of the cysteine by the compound, active = 1 or more
Settings: 500 µM; treatment time 1 h; system: HEK293T cell lysate
How it was run: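 Electrophile (500 µM) or vehicle was added to HEK293T lysate (2 mg/mL) for 1 h at ambient temperature before iodoacetamide alkyne labelling (1 h) and click coupling to sCIP-TMT reagents. After pooling, overnight trypsin digestion at 37 °C, streptavidin enrichment and acid elution, peptides were measured by Orbitrap Eclipse LC-MS/MS with FAIMS and quantified in FragPipe. Each cysteine's log2 competition ratio compares mean control-channel with mean compound-channel reporter intensity, control over compound. Data came from duplicate channels across three replicates, excluding cysteines quantified in only one replicate.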

Chains of the proteins cited; added tags and fusions are not shown. Lines headed by an entry give the natural chain unless they say otherwise; changes in a name come on top.
UniProt Q96S59, whole entry, looked up: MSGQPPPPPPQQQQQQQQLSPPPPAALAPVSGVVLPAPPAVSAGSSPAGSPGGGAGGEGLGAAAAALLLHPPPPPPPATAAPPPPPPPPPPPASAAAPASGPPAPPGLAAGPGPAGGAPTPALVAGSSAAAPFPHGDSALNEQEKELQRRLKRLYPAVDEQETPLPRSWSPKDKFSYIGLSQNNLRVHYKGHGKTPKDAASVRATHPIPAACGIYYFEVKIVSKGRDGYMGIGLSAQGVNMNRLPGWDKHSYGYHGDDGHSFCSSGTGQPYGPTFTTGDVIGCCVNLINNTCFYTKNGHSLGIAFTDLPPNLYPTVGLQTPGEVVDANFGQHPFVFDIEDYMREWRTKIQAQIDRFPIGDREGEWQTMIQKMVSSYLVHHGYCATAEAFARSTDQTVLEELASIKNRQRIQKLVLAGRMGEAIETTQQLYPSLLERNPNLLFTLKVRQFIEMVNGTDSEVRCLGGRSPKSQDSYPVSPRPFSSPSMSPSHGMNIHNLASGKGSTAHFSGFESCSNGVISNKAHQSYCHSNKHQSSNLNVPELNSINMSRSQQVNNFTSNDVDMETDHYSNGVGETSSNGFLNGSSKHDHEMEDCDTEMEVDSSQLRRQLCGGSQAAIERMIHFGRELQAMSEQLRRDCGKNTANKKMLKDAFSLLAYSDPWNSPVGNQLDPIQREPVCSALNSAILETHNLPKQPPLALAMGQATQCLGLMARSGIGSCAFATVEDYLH
UniProt Q96HN2, whole entry: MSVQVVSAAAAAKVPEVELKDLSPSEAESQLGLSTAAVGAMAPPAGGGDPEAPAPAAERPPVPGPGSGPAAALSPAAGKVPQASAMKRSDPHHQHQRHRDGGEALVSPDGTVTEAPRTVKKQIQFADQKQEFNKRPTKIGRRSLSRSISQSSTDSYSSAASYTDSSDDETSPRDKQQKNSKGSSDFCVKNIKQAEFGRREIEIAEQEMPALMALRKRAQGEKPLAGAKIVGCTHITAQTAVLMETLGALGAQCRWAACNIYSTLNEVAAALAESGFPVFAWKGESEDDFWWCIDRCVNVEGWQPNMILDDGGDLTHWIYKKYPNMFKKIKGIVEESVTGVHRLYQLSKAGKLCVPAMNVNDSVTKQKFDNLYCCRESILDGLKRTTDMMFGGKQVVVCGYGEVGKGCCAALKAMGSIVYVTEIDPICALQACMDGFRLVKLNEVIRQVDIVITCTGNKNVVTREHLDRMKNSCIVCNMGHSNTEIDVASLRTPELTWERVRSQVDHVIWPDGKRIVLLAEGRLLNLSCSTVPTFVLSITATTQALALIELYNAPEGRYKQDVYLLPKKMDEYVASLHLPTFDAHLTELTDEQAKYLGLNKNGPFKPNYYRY
UniProt Q96I24: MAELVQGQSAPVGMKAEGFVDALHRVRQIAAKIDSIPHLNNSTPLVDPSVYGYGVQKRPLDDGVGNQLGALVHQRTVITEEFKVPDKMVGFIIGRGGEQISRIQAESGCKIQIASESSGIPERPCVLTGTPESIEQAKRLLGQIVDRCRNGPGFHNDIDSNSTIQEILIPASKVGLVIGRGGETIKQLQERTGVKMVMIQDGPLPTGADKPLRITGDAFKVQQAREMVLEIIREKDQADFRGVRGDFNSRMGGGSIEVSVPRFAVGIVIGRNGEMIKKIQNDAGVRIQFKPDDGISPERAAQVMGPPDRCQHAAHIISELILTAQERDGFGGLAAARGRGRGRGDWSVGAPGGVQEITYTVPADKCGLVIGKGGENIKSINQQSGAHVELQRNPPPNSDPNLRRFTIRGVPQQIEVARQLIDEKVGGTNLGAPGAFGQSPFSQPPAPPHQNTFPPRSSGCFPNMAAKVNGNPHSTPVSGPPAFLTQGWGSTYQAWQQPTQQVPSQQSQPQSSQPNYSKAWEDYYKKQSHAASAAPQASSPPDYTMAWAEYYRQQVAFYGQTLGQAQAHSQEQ
UniProt Q96QR8: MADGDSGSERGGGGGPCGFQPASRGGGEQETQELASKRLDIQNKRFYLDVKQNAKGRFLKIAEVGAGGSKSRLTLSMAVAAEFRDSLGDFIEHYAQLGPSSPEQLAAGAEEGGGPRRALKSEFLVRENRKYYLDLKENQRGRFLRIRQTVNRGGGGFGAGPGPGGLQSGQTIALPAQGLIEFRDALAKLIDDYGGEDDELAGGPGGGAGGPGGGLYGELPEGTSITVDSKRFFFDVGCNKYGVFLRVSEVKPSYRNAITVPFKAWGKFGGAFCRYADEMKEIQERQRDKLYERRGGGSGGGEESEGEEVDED
UniProt Q99426: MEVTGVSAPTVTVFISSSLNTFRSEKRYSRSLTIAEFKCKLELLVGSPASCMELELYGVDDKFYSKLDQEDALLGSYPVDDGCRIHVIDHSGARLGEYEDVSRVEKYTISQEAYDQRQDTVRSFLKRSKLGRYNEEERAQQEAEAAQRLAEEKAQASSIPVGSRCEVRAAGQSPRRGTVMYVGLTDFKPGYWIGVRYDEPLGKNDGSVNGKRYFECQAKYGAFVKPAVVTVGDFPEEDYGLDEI
UniProt Q9BQ39: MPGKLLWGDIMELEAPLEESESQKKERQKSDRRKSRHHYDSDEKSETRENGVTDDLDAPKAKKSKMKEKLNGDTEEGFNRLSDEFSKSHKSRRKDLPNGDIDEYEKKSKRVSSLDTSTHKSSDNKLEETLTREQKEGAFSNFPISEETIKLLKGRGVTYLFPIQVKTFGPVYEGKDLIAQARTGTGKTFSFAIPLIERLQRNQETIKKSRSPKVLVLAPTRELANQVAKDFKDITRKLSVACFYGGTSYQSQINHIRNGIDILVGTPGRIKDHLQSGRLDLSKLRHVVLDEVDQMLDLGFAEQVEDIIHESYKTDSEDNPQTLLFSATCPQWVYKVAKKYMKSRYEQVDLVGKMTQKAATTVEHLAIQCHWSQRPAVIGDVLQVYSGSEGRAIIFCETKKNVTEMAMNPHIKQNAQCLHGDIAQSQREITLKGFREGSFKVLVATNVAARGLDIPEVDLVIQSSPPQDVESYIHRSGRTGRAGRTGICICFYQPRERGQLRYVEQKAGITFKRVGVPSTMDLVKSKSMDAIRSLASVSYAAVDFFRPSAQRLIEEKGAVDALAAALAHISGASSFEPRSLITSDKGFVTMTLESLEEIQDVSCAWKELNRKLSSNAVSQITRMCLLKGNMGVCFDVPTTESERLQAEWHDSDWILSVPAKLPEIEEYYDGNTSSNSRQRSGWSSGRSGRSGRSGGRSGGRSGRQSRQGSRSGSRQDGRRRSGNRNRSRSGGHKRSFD
UniProt Q99757: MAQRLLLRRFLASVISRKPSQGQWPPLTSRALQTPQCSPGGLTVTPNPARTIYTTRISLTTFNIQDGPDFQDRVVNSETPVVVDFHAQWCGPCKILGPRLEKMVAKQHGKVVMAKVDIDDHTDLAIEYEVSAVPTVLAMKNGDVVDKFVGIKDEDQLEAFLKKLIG
UniProt Q96P16: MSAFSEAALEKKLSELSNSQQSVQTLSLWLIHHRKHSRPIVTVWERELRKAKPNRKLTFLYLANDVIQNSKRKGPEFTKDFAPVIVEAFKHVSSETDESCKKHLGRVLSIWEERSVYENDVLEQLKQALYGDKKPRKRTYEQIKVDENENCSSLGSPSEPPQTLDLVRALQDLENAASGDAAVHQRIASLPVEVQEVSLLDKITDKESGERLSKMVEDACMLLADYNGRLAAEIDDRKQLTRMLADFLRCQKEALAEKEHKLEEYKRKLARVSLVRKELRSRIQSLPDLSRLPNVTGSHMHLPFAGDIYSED
UniProt Q96T37: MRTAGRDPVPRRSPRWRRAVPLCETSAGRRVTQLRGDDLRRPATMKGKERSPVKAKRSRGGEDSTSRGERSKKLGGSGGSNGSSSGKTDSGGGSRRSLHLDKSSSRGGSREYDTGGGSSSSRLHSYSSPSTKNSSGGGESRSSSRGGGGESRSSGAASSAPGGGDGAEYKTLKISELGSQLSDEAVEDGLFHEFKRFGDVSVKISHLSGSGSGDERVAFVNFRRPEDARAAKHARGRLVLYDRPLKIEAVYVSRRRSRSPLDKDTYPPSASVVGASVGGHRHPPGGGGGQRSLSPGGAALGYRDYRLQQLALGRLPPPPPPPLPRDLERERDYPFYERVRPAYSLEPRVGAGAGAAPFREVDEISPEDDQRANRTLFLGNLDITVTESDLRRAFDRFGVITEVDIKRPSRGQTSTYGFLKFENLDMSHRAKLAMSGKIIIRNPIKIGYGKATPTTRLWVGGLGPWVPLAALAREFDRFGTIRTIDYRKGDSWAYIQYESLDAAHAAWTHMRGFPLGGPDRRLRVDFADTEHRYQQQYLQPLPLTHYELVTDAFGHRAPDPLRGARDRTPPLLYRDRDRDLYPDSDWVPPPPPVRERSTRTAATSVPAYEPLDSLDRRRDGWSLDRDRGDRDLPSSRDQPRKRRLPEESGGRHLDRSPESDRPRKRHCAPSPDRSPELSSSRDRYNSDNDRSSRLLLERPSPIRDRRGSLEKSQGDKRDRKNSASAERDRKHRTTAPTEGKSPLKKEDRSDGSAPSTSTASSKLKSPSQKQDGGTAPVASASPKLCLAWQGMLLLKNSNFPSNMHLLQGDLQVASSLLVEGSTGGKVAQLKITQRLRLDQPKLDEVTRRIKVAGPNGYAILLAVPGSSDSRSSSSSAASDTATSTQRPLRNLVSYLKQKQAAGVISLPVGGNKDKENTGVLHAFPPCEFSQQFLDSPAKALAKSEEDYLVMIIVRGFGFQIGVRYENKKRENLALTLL
UniProt Q96SZ5, whole entry, looked up: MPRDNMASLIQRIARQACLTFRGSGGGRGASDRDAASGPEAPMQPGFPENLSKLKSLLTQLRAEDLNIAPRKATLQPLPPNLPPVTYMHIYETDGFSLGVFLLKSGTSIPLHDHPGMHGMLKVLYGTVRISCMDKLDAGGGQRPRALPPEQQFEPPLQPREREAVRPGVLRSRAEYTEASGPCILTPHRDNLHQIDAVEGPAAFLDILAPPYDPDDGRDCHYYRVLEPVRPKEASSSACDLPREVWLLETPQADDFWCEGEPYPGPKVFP
UniProt Q99798: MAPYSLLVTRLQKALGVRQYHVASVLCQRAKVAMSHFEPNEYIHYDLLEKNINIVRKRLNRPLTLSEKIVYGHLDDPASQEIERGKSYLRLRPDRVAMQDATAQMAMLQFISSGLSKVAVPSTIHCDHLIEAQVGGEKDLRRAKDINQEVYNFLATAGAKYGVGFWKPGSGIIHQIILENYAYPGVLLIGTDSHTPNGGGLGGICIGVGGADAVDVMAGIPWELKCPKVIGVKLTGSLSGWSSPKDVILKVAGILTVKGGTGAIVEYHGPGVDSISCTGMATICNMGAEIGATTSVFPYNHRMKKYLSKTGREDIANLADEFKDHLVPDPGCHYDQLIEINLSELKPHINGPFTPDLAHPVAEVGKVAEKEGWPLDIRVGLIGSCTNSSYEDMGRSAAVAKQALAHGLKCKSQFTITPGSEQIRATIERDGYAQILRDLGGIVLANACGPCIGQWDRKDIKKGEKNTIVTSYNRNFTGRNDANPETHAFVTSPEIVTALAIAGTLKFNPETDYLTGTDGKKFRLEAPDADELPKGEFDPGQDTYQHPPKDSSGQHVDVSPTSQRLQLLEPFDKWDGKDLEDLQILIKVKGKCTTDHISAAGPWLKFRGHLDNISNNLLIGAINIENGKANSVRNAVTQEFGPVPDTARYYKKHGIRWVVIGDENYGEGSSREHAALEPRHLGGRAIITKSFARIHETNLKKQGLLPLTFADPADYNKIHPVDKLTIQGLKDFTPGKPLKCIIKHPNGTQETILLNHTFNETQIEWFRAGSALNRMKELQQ
UniProt Q96S99: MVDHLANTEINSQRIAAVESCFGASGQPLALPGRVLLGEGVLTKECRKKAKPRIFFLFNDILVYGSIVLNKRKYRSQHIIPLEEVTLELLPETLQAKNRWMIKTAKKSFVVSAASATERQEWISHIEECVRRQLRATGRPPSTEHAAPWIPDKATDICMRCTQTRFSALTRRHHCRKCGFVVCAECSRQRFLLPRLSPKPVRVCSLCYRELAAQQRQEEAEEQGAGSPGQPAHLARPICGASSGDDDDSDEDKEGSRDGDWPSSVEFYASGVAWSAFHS
UniProt Q96SY0, whole entry: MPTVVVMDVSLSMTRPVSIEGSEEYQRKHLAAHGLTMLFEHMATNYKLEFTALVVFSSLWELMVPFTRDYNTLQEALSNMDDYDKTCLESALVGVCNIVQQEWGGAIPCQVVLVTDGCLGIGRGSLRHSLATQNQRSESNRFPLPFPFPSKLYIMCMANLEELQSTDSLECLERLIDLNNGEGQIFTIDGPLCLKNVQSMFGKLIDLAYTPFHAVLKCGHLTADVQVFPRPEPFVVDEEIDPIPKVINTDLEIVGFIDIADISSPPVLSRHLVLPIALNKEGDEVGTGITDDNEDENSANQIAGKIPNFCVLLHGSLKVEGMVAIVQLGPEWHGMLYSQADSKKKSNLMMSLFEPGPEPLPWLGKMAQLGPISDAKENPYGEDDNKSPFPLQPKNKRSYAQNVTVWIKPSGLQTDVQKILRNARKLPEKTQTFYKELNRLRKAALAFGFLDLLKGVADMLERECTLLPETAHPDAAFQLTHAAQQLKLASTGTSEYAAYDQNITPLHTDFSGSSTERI

log2 ratio of iodoacetamide-alkyne labeling, inactive:
PBK C112 (UniProt Q96KB5) 0.0874
RANBP9 C678 (UniProt Q96S59) 0.319
MYBBP1A C1009 (UniProt Q9BQG0) -0.146
CCT7 C511 (UniProt Q99832) -0.0822
TCF25 C216 (UniProt Q9BQ70) 0.282
RUFY1 C544 (UniProt Q96T51) -0.124
CNN2 C164 (UniProt Q99439) 0.159
MCCC1 C509 (UniProt Q96RQ3) -0.102
CDC5L C96 (UniProt Q99459) 0.0348
MYBBP1A C1046 (UniProt Q9BQG0) 0.215
RANBP9 C610 (UniProt Q96S59) 0.213
AHCYL2 C353 (UniProt Q96HN2) 0.302
FUBP3 C366 (UniProt Q96I24) 0.106
ITCH C871 (UniProt Q96J02) 0.0624
PURB C238 (UniProt Q96QR8) 0.00791
FAM118B C93 (UniProt Q9BPY3) -0.109
STRBP C142 (UniProt Q96SI9) 0.229
DNAJC7 C317 (UniProt Q99615) -0.0858
PSMB7 C86 (UniProt Q99436) -0.0345
MMS19 C331 (UniProt Q96T76) -0.219
TMEM209 C367 (UniProt Q96SK2) -0.184
TBCB C216 (UniProt Q99426) 0.205
DDX50 C417 (UniProt Q9BQ39) 0.298
TXN2 C90 (UniProt Q99757) 0.0692
CCT7 C29 (UniProt Q99832) 0.297
RPRD1A C151 (UniProt Q96P16) 0.255
UniProt Q99590_C506 -0.168
RBM15 C926 (UniProt Q96T37) 0.568
PURB C17 (UniProt Q96QR8) 0.405
SRPK1 C356 (UniProt Q96SB4) 0.186
ADO C258 (UniProt Q96SZ5) 0.116
ACO2 C740 (UniProt Q99798) -0.0692
FUBP3 C148 (UniProt Q96I24) 0.118
PLEKHF1 C21 (UniProt Q96S99) 0.0349
UniProt Q96SY0_C193 -0.224
OSBPL9 C619 (UniProt Q96SU4) 0.55
MIPEP C116 (UniProt Q99797) -0.199

2 entries picked at random from those above:
log2 ratio of iodoacetamide-alkyne labeling, inactive:
FUBP3 C148 (UniProt Q96I24) 0.118
TBCB C216 (UniProt Q99426) 0.205

Reference: the supplement of paper PMC11006884
